Source: the supplement of paper PMC6411743
± gives the standard deviation of the averaged measurements. This is one part of the list.

Sequences of proteins named here, by UniProt entry; tags and fusion partners are left off. A change or cut given only in a name is not applied to a line headed by its entry.
UniProt Q8TDQ7: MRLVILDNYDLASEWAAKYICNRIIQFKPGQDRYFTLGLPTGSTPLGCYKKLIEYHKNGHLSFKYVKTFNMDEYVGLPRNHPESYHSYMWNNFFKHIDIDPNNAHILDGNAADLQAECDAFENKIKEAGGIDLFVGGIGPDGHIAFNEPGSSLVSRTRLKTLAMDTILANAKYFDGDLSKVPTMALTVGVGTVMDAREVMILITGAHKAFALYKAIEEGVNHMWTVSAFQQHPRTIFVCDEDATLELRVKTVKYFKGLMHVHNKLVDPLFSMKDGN
UniProt Q8NBF6: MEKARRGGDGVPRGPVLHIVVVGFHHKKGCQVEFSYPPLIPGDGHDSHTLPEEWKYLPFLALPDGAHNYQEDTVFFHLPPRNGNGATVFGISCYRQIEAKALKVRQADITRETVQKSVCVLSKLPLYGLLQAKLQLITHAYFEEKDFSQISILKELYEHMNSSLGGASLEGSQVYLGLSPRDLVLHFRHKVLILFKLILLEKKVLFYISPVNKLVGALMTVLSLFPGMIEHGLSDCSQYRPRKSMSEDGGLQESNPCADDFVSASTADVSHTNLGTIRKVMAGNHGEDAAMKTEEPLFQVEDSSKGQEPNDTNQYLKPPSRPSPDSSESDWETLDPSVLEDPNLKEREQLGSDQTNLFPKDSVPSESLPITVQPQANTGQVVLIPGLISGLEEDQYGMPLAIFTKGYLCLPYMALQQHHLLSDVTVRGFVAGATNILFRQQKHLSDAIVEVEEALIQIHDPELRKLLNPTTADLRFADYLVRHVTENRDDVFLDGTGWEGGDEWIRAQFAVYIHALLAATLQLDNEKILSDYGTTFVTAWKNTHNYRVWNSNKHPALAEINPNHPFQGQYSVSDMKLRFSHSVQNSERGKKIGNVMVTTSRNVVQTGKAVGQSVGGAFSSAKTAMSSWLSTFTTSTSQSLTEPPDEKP
UniProt Q8IWZ8: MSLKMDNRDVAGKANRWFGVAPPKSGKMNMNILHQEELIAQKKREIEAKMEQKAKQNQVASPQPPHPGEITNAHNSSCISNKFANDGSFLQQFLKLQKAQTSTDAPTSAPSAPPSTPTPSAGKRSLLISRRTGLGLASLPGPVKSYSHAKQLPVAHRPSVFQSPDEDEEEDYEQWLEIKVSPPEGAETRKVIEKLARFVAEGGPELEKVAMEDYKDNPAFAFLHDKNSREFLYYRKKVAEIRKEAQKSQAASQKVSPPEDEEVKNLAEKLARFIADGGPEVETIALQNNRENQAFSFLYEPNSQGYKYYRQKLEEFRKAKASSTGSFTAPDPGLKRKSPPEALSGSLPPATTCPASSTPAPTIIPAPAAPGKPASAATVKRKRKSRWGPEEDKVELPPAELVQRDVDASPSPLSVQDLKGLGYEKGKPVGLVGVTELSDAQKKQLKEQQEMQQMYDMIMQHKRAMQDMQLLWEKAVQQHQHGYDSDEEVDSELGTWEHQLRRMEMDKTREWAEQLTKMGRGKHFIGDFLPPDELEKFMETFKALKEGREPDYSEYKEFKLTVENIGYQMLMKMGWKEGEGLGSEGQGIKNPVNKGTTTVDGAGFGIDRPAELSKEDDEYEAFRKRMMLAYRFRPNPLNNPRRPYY
UniProt Q8TD19: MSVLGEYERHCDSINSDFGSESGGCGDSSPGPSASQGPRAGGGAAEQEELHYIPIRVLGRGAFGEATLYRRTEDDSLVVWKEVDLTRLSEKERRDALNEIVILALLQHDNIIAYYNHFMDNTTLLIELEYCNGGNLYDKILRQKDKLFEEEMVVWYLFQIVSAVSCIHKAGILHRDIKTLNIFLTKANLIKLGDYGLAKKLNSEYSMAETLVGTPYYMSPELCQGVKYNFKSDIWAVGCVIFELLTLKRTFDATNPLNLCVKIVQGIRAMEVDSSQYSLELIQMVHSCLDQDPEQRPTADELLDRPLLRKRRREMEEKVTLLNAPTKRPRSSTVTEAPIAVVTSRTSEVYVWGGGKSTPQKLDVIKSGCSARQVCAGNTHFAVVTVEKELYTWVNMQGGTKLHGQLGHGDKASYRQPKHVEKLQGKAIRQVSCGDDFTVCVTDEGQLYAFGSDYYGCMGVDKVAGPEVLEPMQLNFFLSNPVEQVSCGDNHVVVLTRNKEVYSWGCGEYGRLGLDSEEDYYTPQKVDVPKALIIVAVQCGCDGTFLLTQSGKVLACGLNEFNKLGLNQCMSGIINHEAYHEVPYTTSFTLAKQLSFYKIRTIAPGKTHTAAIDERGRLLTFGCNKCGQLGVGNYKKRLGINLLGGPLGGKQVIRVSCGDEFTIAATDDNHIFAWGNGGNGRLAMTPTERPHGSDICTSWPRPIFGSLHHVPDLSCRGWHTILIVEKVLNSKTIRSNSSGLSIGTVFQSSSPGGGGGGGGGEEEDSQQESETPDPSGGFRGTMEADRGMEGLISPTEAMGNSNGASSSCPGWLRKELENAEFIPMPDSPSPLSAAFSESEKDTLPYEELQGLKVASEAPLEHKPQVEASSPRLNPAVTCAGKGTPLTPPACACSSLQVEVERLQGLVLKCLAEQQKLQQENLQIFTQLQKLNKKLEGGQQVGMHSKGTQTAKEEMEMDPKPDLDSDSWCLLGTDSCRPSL
UniProt Q8N183: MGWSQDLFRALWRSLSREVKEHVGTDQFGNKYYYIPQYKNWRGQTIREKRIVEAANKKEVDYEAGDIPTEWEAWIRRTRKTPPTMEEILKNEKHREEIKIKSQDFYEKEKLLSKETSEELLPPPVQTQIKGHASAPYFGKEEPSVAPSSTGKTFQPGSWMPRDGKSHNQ

Compound: Nc1nc2c(ncn2[C@@H]2O[C@H](COP(=O)(O)OP(=O)(O)OP(=O)(O)O)[C@@H](O)[C@H]2O)c(=O)[nH]1 [guanosine triphosphate]
Test: NP40-soluble protein abundance relative to vehicle (solubility fold change) (ratio); higher = more soluble protein in presence of GTP
Method: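 Solubility proteome profiling in Jurkat crude lysate. Lysate was treated with Mg-GTP (0.1-10 mM) for 10 min at room temperature and 3 min at 37 °C, then solubilised with 0.8% NP40 and benzonase, followed by ultracentrifugation. Proteins were quantified by TMT10 LC-MS/MS; the value is the NP40-soluble abundance relative to the NP40-processed vehicle, from 3 independent experiments.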

Target | NP40-soluble protein abundance (concentration: 0.1mM) | NP40-soluble protein abundance (concentration: 0.5mM) | NP40-soluble protein abundance (concentration: 1mM) | NP40-soluble protein abundance (concentration: 2mM) | NP40-soluble protein abundance (concentration: 4mM) | NP40-soluble protein abundance (concentration: 6mM) | NP40-soluble protein abundance (concentration: 8mM) | NP40-soluble protein abundance (concentration: 10mM)
UniProt Q8TDQ7 and related entries | 1.1 ± 0.09 | 1.1 ± 0.062 | 0.948 ± 0.035 | 1.01 ± 0.097 | 0.997 ± 0.089 | 0.97 ± 0.049 | 0.91 ± 0.068 | 0.939 ± 0.14
AVL9 (UniProt Q8NBF6) | 0.933 ± 0.027 | 0.942 ± 0.026 | 0.908 ± 0.031 | 0.936 ± 0.018 | 0.912 ± 0.04 | 0.878 ± 0.013 | 0.916 ± 0.034 | 0.921 ± 0.021
UniProt Q8IWZ8 | 0.953 ± 0.042 | 0.961 ± 0.025 | 1.06 ± 0.085 | 1.09 ± 0.026 | 1.12 ± 0.048 | 1.13 ± 0.051 | 1.18 ± 0.095 | 1.19 ± 0.097
NEK9 (UniProt Q8TD19) | 1.02 ± 0.016 | 1.03 ± 0.018 | 0.977 ± 0.033 | 0.996 ± 0.046 | 1.02 ± 0.037 | 0.976 ± 0.035 | 0.984 ± 0.036 | 0.96 ± 0.01
NDUFAF2 (UniProt Q8N183) | 0.954 ± 0.023 | 0.833 ± 0.013 | 1.02 ± 0.056 | 0.975 ± 0.039 | 0.911 ± 0.043 | 0.945 ± 0.075 | 0.963 ± 0.1 | 1.02 ± 0.073
